PubChem BioAssay AID1259308 – NCATS, 2017
This is one part, drawn at random, of about 59,000 reagents. About 1,510 of them (2.6%) count as active. 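Calls use total luciferase alone and ignore viability, so some active siRNAs may act by altering cell number.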 The numbers tell different reagents against one gene apart. Not all columns of the deposit are shown.

Aim: 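Genes whose loss raises luciferase production in HEK293 cells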 (primary screen)
Cells: human HEK293 embryonic kidney cells stably expressing firefly luciferase (HEK-CMV-Luc2-Hygro)
Knock-down reagent: single siRNA against human genes, 0.8 pmol siRNA per well
Time to read-out: 72 h
Read-out: 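Reporter luminescence and viable-cell signal on separate replicate plates, given as percent of non-targeting control and median/MAD z-scores, plus per-cell luciferase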
Scale: total luciferase, z-score and total luciferase, % of control: higher = more reporter protein produced; luciferase per cell, z-score: higher = more reporter output per viable cell
Call rule: 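Active when the median/MAD z-score for overall luciferase is greater than 3; a gene was taken forward for validation with new siRNAs if at least two of its three siRNAs passed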
Meaning of the calls: active = raised luciferase; inactive = no rise

gene symbol,reagent,"total luciferase, z-score","total luciferase, % of control","luciferase per cell, z-score",Outcome
ZNF271P,1,-0.921,63.6,-0.526,inactive
ZNF271P,2,0.154,85,0.0251,inactive
ZNF271P,3,-1.09,60.2,-1.1,inactive
KIAA0232,1,-1.49,52.3,-1.56,inactive
KIAA0232,2,1.2,106,0.937,inactive
KIAA0232,3,-0.389,74.1,0.0167,inactive
CTNNB1,1,-0.398,74,-0.459,inactive
CTNNB1,2,0.613,94.1,0.346,inactive
CTNNB1,3,-0.444,73.1,-0.691,inactive
TRIM35,1,2.89,139,1.76,inactive
TRIM35,2,-1.74,47.3,0.051,inactive
TRIM35,3,-0.601,69.9,-0.908,inactive
PIAS2,1,0.424,90.3,-0.375,inactive
PIAS2,2,0.813,98.1,0.454,inactive
PIAS2,3,-0.516,71.6,-0.591,inactive
PCDHA1,1,-0.264,76.6,-0.866,inactive
PCDHA1,2,-0.675,68.5,-0.96,inactive
PCDHA1,3,0.474,91.3,-0.226,inactive
ARL6IP5,1,0.589,93.6,-0.141,inactive
ARL6IP5,2,-0.0533,80.8,-0.547,inactive
ARL6IP5,3,-1.48,52.5,-1.21,inactive
ZNF35,1,1.75,117,1.11,inactive
ZNF35,2,-0.295,76,-0.253,inactive
ZNF35,3,-0.76,66.8,-0.346,inactive

Quoted from the entries so far, 6 entries:
gene symbol,reagent,"total luciferase, z-score","total luciferase, % of control","luciferase per cell, z-score",Outcome
CTNNB1,3,-0.444,73.1,-0.691,inactive
TRIM35,1,2.89,139,1.76,inactive
TRIM35,2,-1.74,47.3,0.051,inactive
TRIM35,3,-0.601,69.9,-0.908,inactive
PIAS2,1,0.424,90.3,-0.375,inactive
PIAS2,2,0.813,98.1,0.454,inactive

Continued.
gene symbol,reagent,"total luciferase, z-score","total luciferase, % of control","luciferase per cell, z-score",Outcome
CHMP4A,1,1.79,117,3.27,inactive
CHMP4A,2,-0.483,72.3,-0.315,inactive
CHMP4A,3,-1.02,61.6,-1.51,inactive
SLC9B2,1,-1.51,51.9,-1.89,inactive
SLC9B2,2,1.16,105,0.431,inactive
SLC9B2,3,-0.713,67.7,-1.15,inactive
SIX6,1,-0.345,75,0.0718,inactive
SIX6,2,1.51,112,1.33,inactive
SIX6,3,-0.438,73.2,-0.209,inactive
ACOX1,1,-1.38,54.4,-1.17,inactive
ACOX1,2,1.23,106,0.788,inactive
ACOX1,3,0.482,91.5,0.577,inactive
MICAL3,1,0.7,95.8,0.95,inactive
MICAL3,2,-0.134,79.2,0.558,inactive
MICAL3,3,-0.742,67.1,-0.388,inactive
